Results are given in words; binding and its absence hold for the method and conditions named. Binding seen in cells or lysates may run through a third protein. Some results given as binding are weak or reduced against the parent protein; the word gives no strength. For some of these results: Tags and fused reporters may be left off the sequences shown.
Legend:
[1] = target: T1, Ribonucleotide reductase M1 (RRM1), endogenous (human (endogenous in NCI-H23)) (UniProt P23921); assay: co-IP; endogenous proteins, H23 gemcitabine-resistant (GR) cell lysate; IP with anti-RRM1 Ab, immunoblot; low-stringency conditions
T1 sequence: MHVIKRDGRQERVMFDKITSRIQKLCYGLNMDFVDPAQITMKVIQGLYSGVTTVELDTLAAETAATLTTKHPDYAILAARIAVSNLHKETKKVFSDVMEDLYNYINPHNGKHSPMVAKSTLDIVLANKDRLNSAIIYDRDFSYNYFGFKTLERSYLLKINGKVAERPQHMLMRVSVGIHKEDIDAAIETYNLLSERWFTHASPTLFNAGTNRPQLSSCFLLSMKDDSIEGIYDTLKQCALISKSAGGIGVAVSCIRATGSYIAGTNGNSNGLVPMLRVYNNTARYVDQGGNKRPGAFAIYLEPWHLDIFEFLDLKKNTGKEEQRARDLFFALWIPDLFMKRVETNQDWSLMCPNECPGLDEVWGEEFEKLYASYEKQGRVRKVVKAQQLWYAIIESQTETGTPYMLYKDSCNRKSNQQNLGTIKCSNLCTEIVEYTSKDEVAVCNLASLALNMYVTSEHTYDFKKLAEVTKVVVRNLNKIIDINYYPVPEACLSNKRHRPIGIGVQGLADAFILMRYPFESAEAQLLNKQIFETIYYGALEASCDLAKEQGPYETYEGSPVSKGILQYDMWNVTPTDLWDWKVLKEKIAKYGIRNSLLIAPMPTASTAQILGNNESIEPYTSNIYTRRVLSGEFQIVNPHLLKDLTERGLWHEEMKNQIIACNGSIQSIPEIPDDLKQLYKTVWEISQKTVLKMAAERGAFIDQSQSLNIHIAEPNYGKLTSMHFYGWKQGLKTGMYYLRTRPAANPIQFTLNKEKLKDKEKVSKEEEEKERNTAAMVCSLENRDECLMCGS

Amino acid sequences for entries named in this document (tags omitted).
UniProt P35226: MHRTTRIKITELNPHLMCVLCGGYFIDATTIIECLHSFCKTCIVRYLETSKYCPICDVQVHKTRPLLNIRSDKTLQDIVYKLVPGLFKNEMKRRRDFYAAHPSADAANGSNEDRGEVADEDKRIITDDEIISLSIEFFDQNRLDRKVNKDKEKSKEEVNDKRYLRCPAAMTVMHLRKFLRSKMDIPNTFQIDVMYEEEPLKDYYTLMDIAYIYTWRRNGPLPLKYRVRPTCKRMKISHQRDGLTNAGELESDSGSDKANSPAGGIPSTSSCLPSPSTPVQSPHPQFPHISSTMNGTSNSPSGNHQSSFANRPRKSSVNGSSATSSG
UniProt Q99496: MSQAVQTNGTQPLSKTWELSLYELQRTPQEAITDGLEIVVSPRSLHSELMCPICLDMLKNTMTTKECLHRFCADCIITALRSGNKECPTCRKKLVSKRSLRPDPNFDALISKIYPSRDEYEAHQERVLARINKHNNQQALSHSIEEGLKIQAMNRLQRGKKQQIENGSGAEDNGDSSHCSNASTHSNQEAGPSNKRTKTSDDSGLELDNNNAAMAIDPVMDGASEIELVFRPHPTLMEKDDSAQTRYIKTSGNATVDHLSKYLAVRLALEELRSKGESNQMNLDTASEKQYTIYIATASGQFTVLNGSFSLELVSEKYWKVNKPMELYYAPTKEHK

[2] = target: T2, Flag-labeled RRM1 (human) (UniProt P23921); assay: co-IP; H23-Flag-RRM1 cells transiently transfected with HA-RNF2 or GFP-Bmi1, harvested after 48 h; IP with anti-Flag Ab, immunoblot with anti-HA or anti-GFP; for HA-RNF2 also with MG132 treatment (Fig. 3A)
T2 sequence: T1 sequence

[3] = target: T1, Ribonucleotide reductase M1 (RRM1), endogenous (human (endogenous in NCI-H23)); assay: co-IP; endogenous proteins, H23-WT lysate (1% Triton X-100, 100 mM NaCl, 50 mM Tris-HCl pH 7.4); IP with anti-RRM1 Ab or control IgG on protein G or A beads, immunoblot

Substance	binding [2]	other results
Bmi1 (B cell-specific moloney murine leukemia virus insertion site 1), endogenous (from UniProt P35226 1-326)	–	binding [1]: binds weakly
GFP-Bmi1 (from UniProt P35226 1-326)	binds	–
RING finger protein 2 (RNF2), endogenous (from UniProt Q99496 1-336)	–	binding [3]: binds
hemagglutinin-(HA)-labeled RNF2 (from UniProt Q99496 1-336)	binds	–

— PMC3948819
